# PubChem BioAssay AID2685 (National Center for Advancing Translational Sciences (NCATS), 2010)
# About 2,100 (0.66%) of roughly 320,000 compounds were called active. Inconclusive results, whose numbers are uncertain, are shown with a selection of clear calls. Calls follow the shape of the dose curve; as a rule, active = well fitted inhibition curve with a large enough effect in the signal ratio, with a control signal flat (not every such curve was filed as active); inconclusive = small, poorly fitted or top-dose-only effect, or effect the other way, or a change in a side signal; inactive = flat fitted curve, though single readings scatter; the % refers to the signal ratio. Potencies of inconclusive entries are doubtful fits and often do not repeat.
# Assay: qHTS Assay for Lipid Storage Modulators in Drosophila S3 Cells
# Conditions: BODIPY lipid droplet fluorescence, 18-24 h, cells fed with added oleic acid; lipid storage change, negative = inhibition: at 46.1 µM (top of the series) unless noted
# Procedure, shortened: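 Drosophila S3 cells loaded with oleic acid (400 uM, as added) and compounds at several concentrations; lipid droplets imaged by 488-nm laser-scanning cytometry, 500–530 nm intensity and object ratio to cell channel. Percent activity normalized to 20 uM Triacsin C.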
# % is scaled to controls: 0 for no effect and ±100 for the full control effect; potency is read from the fitted curve at half-maximal effect.
Compound,"lipid storage change, negative = inhibition",Potency
O=C(CCCn1c(=O)oc2ccccc21)Nc1ccccc1,inconclusive,–
CCCNC(=S)NC1CCCC1,–,"inconclusive: 0.013 µM [falling, full curve, poor fit]"
Cc1ccc(-n2nc3c(=O)n(C(C)C(=O)NCc4ccccc4Cl)nc(C)c3c2C)cc1 (stereo unspecified),–,"inconclusive: 14.6 µM [falling, single point]"
COc1cc(CN2CCCCC2)ccc1OCc1ccccc1,inconclusive: 2.76%,–
Cc1ccc(-n2cccn2)c(CN2CCC(CO)(CCc3ccccc3)CC2)c1,inconclusive: 1.45%,–
Nc1cc(-c2ccccc2)n2c(n1)nc1ccccc12,inconclusive: 40%,–
Cc1cccn2c(=O)c(/C=C(\C#N)S(=O)(=O)c3ccc(Cl)cc3)c(N3CCC(C(N)=O)CC3)nc12,inconclusive: 214%,–
CN(C)/C=C(\C#N)S(=O)(=O)c1ccccc1,inconclusive: -20.5%,–
CC1c2ccsc2CCN1S(=O)(=O)c1ccccc1 (stereo unspecified),inconclusive: 11.5%,–
O=Cc1ccc(OCc2ccc3c(c2)OCO3)cc1,inconclusive: 31.9%,–
Cc1ccc(NC(=O)CN(C)C(=O)c2ccc3[nH]c4c(c3c2)CC(C)CC4)cc1 (stereo unspecified),inconclusive: -49.5%,–
Cc1ccc2c(c1)N(CC(=O)N1CCCC1)C(=O)c1cccnc1O2,–,"inconclusive: 0.103 µM [falling, full curve, poor fit]"
CCOC(=O)C1=C(COC(=O)c2ccccc2OC)NC(=O)NC1C (stereo unspecified),inconclusive: 9.96%,–
C[C@@H](C(=O)NCc1ccc(S(C)(=O)=O)cc1)[C@H]1C[C@]1(C)[C@H](NC(=O)OCc1ccccc1)c1ccccc1,inconclusive: 15.2%,–
CO/N=C(/C)CCS(=O)(=O)c1ccccc1,inconclusive: -38.3%,–
COCCCn1c(SCc2nnc(-c3ccc(OC)c(OC)c3)o2)nc2ccccc2c1=O,inconclusive: 0.274%,–
CN(CCC#N)C(=O)CSc1nnc(-c2ccco2)n1N,–,"inconclusive: 1.3 µM [falling, full curve, poor fit]"
CCOC(=O)Cc1cc(=O)n2[nH]cc(-c3cccc(Br)c3)c2n1,inconclusive: 13%,–
Cc1cc(C)c(C#N)c(SCS(=O)c2ccc(C(C)(C)C)cc2)n1 (stereo unspecified),inconclusive: -44.5%,–
COc1ccc(NC(=O)c2ccc(-c3ccc(C(C)=O)cc3)o2)cn1,inconclusive: -29.6%,–
CCC(C)NC(=O)[C@H](CSCc1ccccc1)N1Cc2ccccc2C1=O (stereo partly specified),inconclusive: 17.3%,–
CSCCC(NS(=O)(=O)c1cccc(C(F)(F)F)c1)C(=O)N(C)Cc1ccc2c(c1)OCCO2 (stereo unspecified),inconclusive: -38.2% [cytotoxic],–
Cc1ccccc1CNC(=O)c1ccc2nc(N3CCOCC3)sc2c1,inconclusive: -19.3%,–
CN(C(=O)c1ccccn1)C1(C(=O)NC2CCCCC2)CCCCC1,–,"inconclusive: 0.731 µM [falling, partial curve, poor fit]"
CCOc1ccc2nc(SCC(=O)N(CC(C)C)c3c(N)n(Cc4ccccc4)c(=O)[nH]c3=O)[nH]c2c1,–,"inconclusive: 7.31 µM [activator, partial curve, poor fit]"
Cc1ccc(C)c(OCc2cc(C(=O)N3CCc4sccc4C3)no2)c1,inconclusive: -100%,–

Compound,"lipid storage change, negative = inhibition",Potency
CCOC(=O)CCNC(=O)N1CCCC(CNS(=O)(=O)Cc2ccccc2)C1 (stereo unspecified),inconclusive: -22.7%,–
Cc1c(OCC(=O)NCCCN2CCCC2=O)ccc2c3c(c(=O)oc12)CCCC3,–,active: 8.2 µM
CN(C(=O)c1cccc(N2C(=O)C3CC=CCC3C2=O)c1)C1CCCCC1 (stereo unspecified),inconclusive: 89.8%,–
Cc1ccccc1OCCSc1nc(N(C)C)nc(N(C)C)n1,–,"inconclusive: 5.17 µM [rising, partial curve]"
Cc1cc(NC(=O)CSCC(=O)Nc2cccc(S(=O)(=O)N3CCCCCC3)c2)no1,inconclusive,–
COc1ccc(C(=O)c2coc3ccc(OC(C)=O)cc23)cc1,inconclusive: 13.8%,–
O=[N+]([O-])c1cccc(N/N=C/c2ccc(N3CCOCC3)cc2)c1,–,"inconclusive: 20.6 µM [falling, single point]"
COc1ccc(CNCc2cc(Cl)ccc2O)cc1,–,"inconclusive: 0.651 µM [activator, single point]"
COc1ccc(NS(=O)(=O)c2ccc(NC(C)=O)cc2)c(OC)c1,inactive,–
COC(C[C@@H](O)C[C@H](O)[C@@H](C)OCc1ccccc1)OC,–,"inconclusive: 0.103 µM [falling, full curve, poor fit]"
CCOC(=O)N1CCN(C(=O)COC(=O)c2cccc(C)c2[N+](=O)[O-])CC1,inconclusive: -3.28%,–
CCCCOc1ccccc1C1NC(=O)CCC1[N+](=O)[O-] (stereo unspecified),inconclusive: 11.8%,–
COCCCNC(=O)CCCN1C(=O)c2cccnc2Sc2ccccc21,inconclusive: 20.5%,–
CCNC(=S)/N=C(/Nc1ccccc1)Nc1nc(C)cc(C)n1,inconclusive: -19%,–
C=CCN1C(=O)OC2(CCCCC2)C1(C)O (stereo unspecified),inconclusive: 2.11%,–
O=C(Nc1ccc(CN2CCOCC2)cc1)c1ccc(-c2ccc(Br)cc2)o1,–,"inconclusive: 0.58 µM [activator, single point]"
COc1ccc(NC(=S)Nc2ccccn2)c(OC)c1,–,"inconclusive: 0.731 µM [activator, full curve]"
COCCNC(=S)NCCCNc1nc2cc3c(cc2cc1C#N)OCO3,inconclusive: 11.8%,–
O=C(C[n+]1ccccc1)Nc1ccc(Cl)c([N+](=O)[O-])c1,inconclusive: -1.86%,–
Cc1ccc(CNC(=O)COc2ccccc2-c2ccccc2)cc1,–,"inconclusive: 2.31 µM [activator, partial curve]"
COc1cccc(C2/C(=C(/O)c3ccncc3)C(=O)C(=O)N2CCCN(C)C)c1 (stereo unspecified),–,active: 6.51 µM
CCOc1cc(C)cc2oc(=O)cc(-c3ccccc3)c12,–,"inconclusive: 25.9 µM [activator, single point]"
CN1C(=O)N(C)C(c2ccccc2Cl)C2=C1CC(C)(C)CC2=O (stereo unspecified),inconclusive: -82.2%,–
CC1CCCCN1C(=O)c1ccc(COc2ccc([N+](=O)[O-])cc2)o1 (stereo unspecified),inconclusive: 25.3%,–
COc1ccc(C)cc1-n1nc2ccccc2n1,inconclusive: -36.7% [cytotoxic] [at 0.369 µM],–
Cc1ncc(CO)c(CNc2ccc(Oc3ccccc3)cc2)c1O,inconclusive: 63.5%,–

# Quoted at random: 5 records from the list
Compound,"lipid storage change, negative = inhibition",Potency
CN(CCC#N)C(=O)CSc1nnc(-c2ccco2)n1N,–,"inconclusive: 1.3 µM [falling, full curve, poor fit]"
CCOC(=O)C1=C(COC(=O)c2ccccc2OC)NC(=O)NC1C (stereo unspecified),inconclusive: 9.96%,–
Cc1ccccc1CNC(=O)c1ccc2nc(N3CCOCC3)sc2c1,inconclusive: -19.3%,–
Cc1ccc(-n2cccn2)c(CN2CCC(CO)(CCc3ccccc3)CC2)c1,inconclusive: 1.45%,–
Cc1ccc(NC(=O)CN(C)C(=O)c2ccc3[nH]c4c(c3c2)CC(C)CC4)cc1 (stereo unspecified),inconclusive: -49.5%,–

# Next results.

Compound,"lipid storage change, negative = inhibition",Potency
CC(=O)c1c(C)[nH]c(C(=O)N2CCc3ccccc32)c1C,–,"inconclusive: 4.11 µM [activator, partial curve]"
N#Cc1cnn(Cc2ccc(Cl)cc2)c1N,–,"inconclusive: 10.3 µM [activator, partial curve]"
Cc1ccc(NC(=S)N(CCCN2CCC(C)CC2)Cc2ccco2)cc1C,–,"inconclusive: 25.9 µM [activator, single point]"
CSc1cccc(NC(C)C(=O)NCc2ccccc2)c1 (stereo unspecified),inconclusive: -6.7%,–
Cc1cccc(C(C)C)c1NC(=O)c1c(-c2ccccc2)noc1C,–,"inconclusive: 6.51 µM [activator, single point]"
O=C(O)c1ccc(Cn2c(SCc3cc(=O)n4cc(Br)ccc4n3)nc3ccsc3c2=O)cc1,–,"inconclusive: 6.51 µM [activator, single point]"
Cc1ccccc1C(=O)Nc1nnc(SCC(=O)NCc2ccco2)s1,inactive,–
CCN1C(=O)/C(=C\c2cn(-c3ccccc3)nc2-c2cccnc2)SC1=S,–,"inconclusive: 29.1 µM [activator, single point]"
COc1ccc(C)cc1N(CC(=O)NC1CCCC1)C(=O)CCC(=O)Nc1nc(C)cs1,inconclusive: -100%,–
CCOc1ccc(N2C(=O)CC(NCCc3c[nH]c4ccccc34)C2=O)cc1 (stereo unspecified),inconclusive: 9.16%,–
CC1=C(C(=O)OC(C)C)C(C)C(C(=O)OC(C)C)=C(C)N1,–,"inconclusive: 3.66 µM [activator, single point]"
COc1ccccc1C(CNC(=O)c1cccc(NS(=O)(=O)c2ccc(C)c(F)c2)c1)N(C)C (stereo unspecified),inconclusive: 30.7%,–
NS(=O)(=O)c1ccc(CCNC(=O)c2ccc(NC3=NC4CS(=O)(=O)CC4S3)cc2)cc1 (stereo unspecified),–,"inconclusive: 29.1 µM [activator, single point]"
CCOc1cc(/C=N/NC(=O)OC)ccc1OCCSc1ccc(Cl)cc1,–,"inconclusive: 4.61 µM [activator, single point]"
O=C(COC(=O)c1ccccc1NCCO)Nc1cc(C(F)(F)F)ccc1N1CCOCC1,inconclusive: -28.9%,–
Cc1nc2ccc(Cl)cn2c1C(=O)NN,inconclusive: 12.2%,–
CCN1CCN(c2cc(C)c3cc(NC(=S)N4CCN(c5ccccc5F)CC4)ccc3n2)CC1,inconclusive: 23.1%,–
N#CCCN(Cc1ccccc1)C(=S)Nc1ccccc1,inconclusive: 22%,–
O=C(CSc1nc2cc(Cl)ccc2c(=O)n1Cc1ccco1)Nc1ccc(S(=O)(=O)N2CCOCC2)cc1,–,"inconclusive: 8.2 µM [falling, partial curve, poor fit]"
COc1cc(SC)ccc1C(=O)N(C)CC(=O)Nc1cccc2ccccc12,–,"inconclusive: 0.0046 µM [activator, full curve, poor fit]"
CCCN1CCN(CCCNC(=O)CN2C(=O)COc3ccccc32)CC1,inconclusive: -60.9%,–
CNC(=O)CCn1nc(-c2ccc(C)cc2)c2ccccc2c1=O,inconclusive: 436%,–
COc1ccc(CN2CCNC(=O)C2CC(=O)N(C)CC2CCOCC2)c(F)c1 (stereo unspecified),inconclusive: 26.8%,–
CCOc1ccc(NC(=O)CN2C(=O)C3CCCN3C2=O)cc1 (stereo unspecified),inactive,–
